{"sequences": {"note": "The chains behind the UniProt entries cited, without tags or fusion partners.", "UniProt Q0JBA9, entry or part of it": "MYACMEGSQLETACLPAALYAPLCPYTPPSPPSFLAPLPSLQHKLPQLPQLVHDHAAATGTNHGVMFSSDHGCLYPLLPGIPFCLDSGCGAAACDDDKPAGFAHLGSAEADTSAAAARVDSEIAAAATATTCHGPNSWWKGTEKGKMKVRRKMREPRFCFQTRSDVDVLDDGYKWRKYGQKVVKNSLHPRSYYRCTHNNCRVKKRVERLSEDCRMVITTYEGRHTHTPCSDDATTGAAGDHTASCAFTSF"}, "source": "paper PMC7819943", "about": "“Rice protein-binding microarrays: a tool to detect cis-acting elements near promoter regions in rice”", "note": "This is one part of the list.", "data": [{"target": "OsWRKY34 (Oryza sativa, UniProt Q0JBA9 1-250)", "experiment": "protein-binding microarray (RPBM); PBS, 2% BSA, 51.3 ng/ul salmon testes DNA, 50 uM zinc acetate, 200 nM TF, 25 C, 1 h; high values mean tight binding", "conditions": "protein: recombinant; tags: N-terminal polyhistidine and DsRed monomer fusion (pET32a); label: CyDye5-dUTP incorporated in the synthesized complementary strand; 3' TTTTT single-stranded linker to array surface; dsDNA, one strand shown", "in_short": "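A custom Agilent array was converted to double-stranded form by primer extension with Cy5-dUTP and blocked with 2% BSA. Protein at 200 nM in PBS with 2% BSA, salmon testes DNA and 50 µM zinc acetate was applied for 1 h at 25 °C, followed by washing. The proteins were polyhistidine–DsRed N-terminal fusions of transcription factors, expressed in E. coli BL21-CodonPlus and Ni–NTA-purified. The binding signal is per-feature fluorescence intensity (arbitrary units) from an Axon 4000B scanner.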", "values": [{"sequence": "AAGTCAAATCACCTCGCTCGCTTTGCTTCGACGAAACTTCCGGAGTCACCTAGTGCAG", "binding signal": "8920 fluorescence intensity (a.u.)"}, {"sequence": "CCCCGAGCCCAAGCCTCTAGCTTGGCTCCGCCCAACCCACCGGAGTCACCTAGTGCAG", "binding signal": "8930 fluorescence intensity (a.u.)"}, {"sequence": "TTTGGTCTGAGATAATTTCTTTTCCATTTCCCCATTCCTTCGGAGTCACCTAGTGCAG", "binding signal": "8210 fluorescence intensity (a.u.)"}, {"sequence": "TTTCCTTCGGCCATTGTTCTTACTGAAAGCAATATTTTCTCGGAGTCACCTAGTGCAG", "binding signal": "8050 fluorescence intensity (a.u.)"}, {"sequence": "GACATGACCCCTCGATCGTCCGCCACGTGTCGCGCGCCATCGGAGTCACCTAGTGCAG", "binding signal": "8390 fluorescence intensity (a.u.)"}, {"sequence": "CTGCTGTGTTGTTTTCCTTTGCTAGATATTGAATCTGCAGCGGAGTCACCTAGTGCAG", "binding signal": "10400 fluorescence intensity (a.u.)"}, {"sequence": "GCCTTGAGCATCACCGTCCTCAGCATCCTCGCGCTGTCAACGGAGTCACCTAGTGCAG", "binding signal": "11100 fluorescence intensity (a.u.)"}, {"sequence": "AACACGCCCTGATCTACGAAACCATCCATCCGTTCCAAATCGGAGTCACCTAGTGCAG", "binding signal": "9230 fluorescence intensity (a.u.)"}, {"sequence": "TCACCTGATCAAGTACGCGTTTTTGGCCCTCAAAAGTATTCGGAGTCACCTAGTGCAG", "binding signal": "8120 fluorescence intensity (a.u.)"}, {"sequence": "TCGAGTTATTCGTCTTCCATAGCTGCATTGTTGACTCACTCGGAGTCACCTAGTGCAG", "binding signal": "11000 fluorescence intensity (a.u.)"}, {"sequence": "CATGTGCTTCGCGCCCTTTGCTTCATATATACCCCTGGCACGGAGTCACCTAGTGCAG", "binding signal": "8550 fluorescence intensity (a.u.)"}, {"sequence": "TCATATAGTTGCAACGATCTCTTTTAGCTTGTGTTGCACTCGGAGTCACCTAGTGCAG", "binding signal": "8200 fluorescence intensity (a.u.)"}, {"sequence": "ATATATATATATATCCTATTTCTATAATAAATTTTACTTTCGGAGTCACCTAGTGCAG", "binding signal": "8030 fluorescence intensity (a.u.)"}, {"sequence": "ATCACGGAGGAGGCGTTCGGGGAGGGAGGGTGGGGCGCGCCGGAGTCACCTAGTGCAG", "binding signal": "24400 fluorescence intensity (a.u.)"}, {"sequence": "GTGTGGGTGTGTGTCTAATGTGTAATTGAATAAAAAAAATCGGAGTCACCTAGTGCAG", "binding signal": "12000 fluorescence intensity (a.u.)"}, {"sequence": "CACCACGTCGCGCGCATGCCCCGTCTCCTCCTATAAAATACGGAGTCACCTAGTGCAG", "binding signal": "8600 fluorescence intensity (a.u.)"}, {"sequence": "TCATATCTGGTTCGCTGTTCTTATGTGAAGTTGCTCTGTCCGGAGTCACCTAGTGCAG", "binding signal": "10500 fluorescence intensity (a.u.)"}, {"sequence": "CGCTCGCGGCGCTGACCACCGTGAACCGGTCGATGGCCACCGGAGTCACCTAGTGCAG", "binding signal": "8230 fluorescence intensity (a.u.)"}, {"sequence": "GCCTCCGTGTCCATTGCAGTGGTGGGTGGTGTTGTGGAGCCGGAGTCACCTAGTGCAG", "binding signal": "9960 fluorescence intensity (a.u.)"}, {"sequence": "AATAGTGGTAGGGACGGGATCTTCACGCGAGTATGACAATCGGAGTCACCTAGTGCAG", "binding signal": "10200 fluorescence intensity (a.u.)"}, {"sequence": "GACCGTATCAGGGACGTATCCTGCTTTTTTTCTTTTTCGGCGGAGTCACCTAGTGCAG", "binding signal": "11400 fluorescence intensity (a.u.)"}, {"sequence": "ATTATGTGATGCTCACTGTCTATATGCTATTCCTGCTGTACGGAGTCACCTAGTGCAG", "binding signal": "8070 fluorescence intensity (a.u.)"}, {"sequence": "AACGTACTAGGGCTACAGTATCTTTTTACACGCATCCGGTCGGAGTCACCTAGTGCAG", "binding signal": "8210 fluorescence intensity (a.u.)"}, {"sequence": "TAGGGTGCTGTACATTCCTTCAGTTGTTGGTACTGTCGACCGGAGTCACCTAGTGCAG", "binding signal": "9040 fluorescence intensity (a.u.)"}, {"sequence": "ACTGTTCCTCGACCCCGAGCTCACGGCCTCAATGGCGTCCCGGAGTCACCTAGTGCAG", "binding signal": "8110 fluorescence intensity (a.u.)"}, {"sequence": "TTAATTAAGCAGGCGAATTCTTGTTTTTTTTTCTCTTCTACGGAGTCACCTAGTGCAG", "binding signal": "8290 fluorescence intensity (a.u.)"}, {"sequence": "TGCTCGCGCCTTTCTTGCTTGTCTGCGCCGTCCGCGGCCGCGGAGTCACCTAGTGCAG", "binding signal": "14900 fluorescence intensity (a.u.)"}, {"sequence": "TAACCCGGTTCTTCTACTACTACTAATCTACCTCAATTCCCGGAGTCACCTAGTGCAG", "binding signal": "8480 fluorescence intensity (a.u.)"}, {"sequence": "CACTGGTTATTTTGGGGTAGAGGGAGTTTTTTTTAAAGAACGGAGTCACCTAGTGCAG", "binding signal": "14400 fluorescence intensity (a.u.)"}, {"sequence": "CTACGATCAGAAACAGCGGGGCGGGTTGGGAGGGAGTCCACGGAGTCACCTAGTGCAG", "binding signal": "15800 fluorescence intensity (a.u.)"}, {"sequence": "GAGATCCTTATCCTCTCGCTCTCACGGTCTCTCTCCCATTCGGAGTCACCTAGTGCAG", "binding signal": "9390 fluorescence intensity (a.u.)"}, {"sequence": "GGCTTAATTTAGTTTTCGTTGTTTCCGCTCAAACAAATCCCGGAGTCACCTAGTGCAG", "binding signal": "8380 fluorescence intensity (a.u.)"}, {"sequence": "TCGCATCTGAACTTGTCGCTCATTGGAATATTAATCATGTCGGAGTCACCTAGTGCAG", "binding signal": "9950 fluorescence intensity (a.u.)"}, {"sequence": "CTTGTGCCGCTGCAGTCTGTAGGTCTCCTAAAATTCCTTCCGGAGTCACCTAGTGCAG", "binding signal": "8330 fluorescence intensity (a.u.)"}, {"sequence": "GGTGGTGGTGGTGGTGGAGTGCGGCGGCGGGGATAGCCGCCGGAGTCACCTAGTGCAG", "binding signal": "11500 fluorescence intensity (a.u.)"}, {"sequence": "TTTGCAATATCAGGGGTGTGTTACATATGTATTTCGATTTCGGAGTCACCTAGTGCAG", "binding signal": "12400 fluorescence intensity (a.u.)"}, {"sequence": "TATTTGTGTTCAAACCCTTCCCACCGGTTTTAATTACTTACGGAGTCACCTAGTGCAG", "binding signal": "9820 fluorescence intensity (a.u.)"}, {"sequence": "TGCAGTTTTTCTGAGATGTCTTCTAGGCATGTTCTGTTGTCGGAGTCACCTAGTGCAG", "binding signal": "8140 fluorescence intensity (a.u.)"}, {"sequence": "TCCTCGCGACCTTAATTTACTCCTCCAATGGCCGCCGCTGCGGAGTCACCTAGTGCAG", "binding signal": "8600 fluorescence intensity (a.u.)"}, {"sequence": "AGGACCAAGTCAAACCAGCCACATCACTGTCACGTCAGCCCGGAGTCACCTAGTGCAG", "binding signal": "9310 fluorescence intensity (a.u.)"}, {"sequence": "GCAAGTACTTGGTGGTATATGTTGTTTGGAATAAAAAGGTCGGAGTCACCTAGTGCAG", "binding signal": "8320 fluorescence intensity (a.u.)"}, {"sequence": "CATACGCCTCGTCGAGTTGTCATCTTGTATTCCTATCAAACGGAGTCACCTAGTGCAG", "binding signal": "11500 fluorescence intensity (a.u.)"}]}]}
